Among the data in article PMC7618119 are binding values, retold here.

Sequences of proteins named here, by UniProt entry; tags and fusion partners are left off.
UniProt P35372, whole entry: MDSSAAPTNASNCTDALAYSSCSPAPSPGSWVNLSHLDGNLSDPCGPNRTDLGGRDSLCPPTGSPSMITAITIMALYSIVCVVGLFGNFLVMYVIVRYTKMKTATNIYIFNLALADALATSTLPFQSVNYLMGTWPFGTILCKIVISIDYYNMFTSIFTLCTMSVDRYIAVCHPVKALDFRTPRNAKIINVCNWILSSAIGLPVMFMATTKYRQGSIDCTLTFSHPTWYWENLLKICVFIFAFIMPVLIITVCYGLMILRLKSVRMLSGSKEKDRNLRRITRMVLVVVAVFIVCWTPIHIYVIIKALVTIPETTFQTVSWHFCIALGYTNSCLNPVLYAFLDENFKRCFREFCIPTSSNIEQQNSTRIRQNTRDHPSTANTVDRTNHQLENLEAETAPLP
UniProt P32121, whole entry: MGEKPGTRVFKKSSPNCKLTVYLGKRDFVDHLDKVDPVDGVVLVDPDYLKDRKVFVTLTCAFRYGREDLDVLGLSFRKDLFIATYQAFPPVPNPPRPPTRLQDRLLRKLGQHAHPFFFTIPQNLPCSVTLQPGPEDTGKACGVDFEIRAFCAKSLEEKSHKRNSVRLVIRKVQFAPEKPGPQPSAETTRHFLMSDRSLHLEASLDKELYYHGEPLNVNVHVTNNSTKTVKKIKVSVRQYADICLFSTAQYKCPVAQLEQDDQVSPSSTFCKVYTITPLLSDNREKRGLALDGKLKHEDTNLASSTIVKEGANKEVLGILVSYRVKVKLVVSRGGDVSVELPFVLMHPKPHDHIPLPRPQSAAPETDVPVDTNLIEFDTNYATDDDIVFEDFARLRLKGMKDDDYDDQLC

These are yes or no findings as the source states them, for the method shown. In cells and extracts the contact can be indirect. Some binding calls cover weakened binding; strength is not graded here.

This test addresses human μ-opioid receptor-RlucII (human) (UniProt P35372). In words: FRET or BRET; BRET2 in intact HEK293T cells transiently transfected with human μ-opioid receptor-RlucII and β-arrestin-2-GFP; 37°C; coelenterazine 400a 5 μM; read 10 min after opioid agonist application. Background: Bioluminescence resonance energy transfer reports proximity on the nanometre scale.

As for “β-arrestin-2-GFP (from UniProt P32121 1-409)”, the binding result was “binds”.
